Measured data: PubChem BioAssay AID743121 (NCATS, 2013)
Shown is an unselected part of about 26,000 reagents tested. In the full data, 167 (0.63%) got an active call. 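Calls are per gene from RSA p-values that are not deposited; an individual active-marked siRNA can sensitise only weakly.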 Entries without a mark were called inactive. Reagents against one gene are numbered here. Not all columns of the deposit are shown. No sequences are given here.

- Screen: 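Genes whose silencing strengthens cell killing by camptothecin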 (primary screen)
- System: MDA-MB-231 cells, a human breast cancer line
- Knock-down reagent: single siRNA against human genes, 20 nM siRNA (0.8 pmol per well)
- Timing: 120 h (drug added 48 h after transfection, read 72 h later)
- Challenge: camptothecin 20 nM (about EC30) for 72 h; vehicle 0.1% DMSO in parallel plates
- Measured: 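CellTiter-Glo ATP signal, scaled to control siRNA as percent viability; sensitisation given as log2 of untreated divided by camptothecin-treated viability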
- Reading the numbers: log2 vehicle/camptothecin viability: higher = stronger sensitisation to camptothecin
- Rule for the call: 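Active genes have an RSA gene-level p-value below 0.001, computed from the ratios of their separate siRNAs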

For ZNF197 #1 the deposit lists log2 vehicle/camptothecin viability -0.0104.
For ZNF197 #2, the values are log2 vehicle/camptothecin viability -0.232.
Knock-down of ZNF197 #3 came out at: log2 vehicle/camptothecin viability -0.18.
ZNF197 #4 showed log2 vehicle/camptothecin viability -0.337.
Silencing of CBR3 #1 gave: log2 vehicle/camptothecin viability -0.177.
CBR3 #2 scored log2 vehicle/camptothecin viability -0.162.
Against CBR3 #3, the values are log2 vehicle/camptothecin viability -0.23.
CBR3 #4 showed log2 vehicle/camptothecin viability -0.0738.
With knock-down of KCNJ1 #1, the record shows log2 vehicle/camptothecin viability -0.474.
With knock-down of KCNJ1 #2, the screen gave log2 vehicle/camptothecin viability 0.0758.
After knock-down of KCNJ1 #3, the screen gave log2 vehicle/camptothecin viability 0.104.
Against KCNJ1 #4, the entry reads log2 vehicle/camptothecin viability -0.399.
With knock-down of UBR2 #1, the record shows log2 vehicle/camptothecin viability -0.116.
Knock-down of UBR2 #2 gave: log2 vehicle/camptothecin viability -0.308.
UBR2 #3 gave log2 vehicle/camptothecin viability -0.655.
TSLP #1 scored log2 vehicle/camptothecin viability -0.273.
For TSLP #2, the values are log2 vehicle/camptothecin viability -0.102.
Silencing of TSLP #3 gave: log2 vehicle/camptothecin viability -0.217.
Against PCBD1 #1 the deposit lists log2 vehicle/camptothecin viability -0.283.
Against PCBD1 #2 the deposit lists log2 vehicle/camptothecin viability 0.108.
Silencing of PCBD1 #3 came out at: log2 vehicle/camptothecin viability -0.211.
Silencing of PCBD1 #4 gave: log2 vehicle/camptothecin viability 0.252.
Depletion of INPP5A #1 gave: log2 vehicle/camptothecin viability -0.293.
Depletion of INPP5A #2 resulted in: log2 vehicle/camptothecin viability -0.143.
INPP5A #3 scored log2 vehicle/camptothecin viability -0.0788.
After knock-down of INPP5A #4, the screen gave log2 vehicle/camptothecin viability -0.314.
GCG #1 scored log2 vehicle/camptothecin viability 0.333.
With knock-down of GCG #2, the screen gave log2 vehicle/camptothecin viability -0.11.
After knock-down of GCG #3, the record shows log2 vehicle/camptothecin viability -0.396.
Against GCG #4 the deposit lists log2 vehicle/camptothecin viability -0.069.
CRIPTO #1 showed log2 vehicle/camptothecin viability -0.385.
After knock-down of CRIPTO #2, the record shows log2 vehicle/camptothecin viability -0.118.
With knock-down of CRIPTO #3 the results were log2 vehicle/camptothecin viability -0.077.
Depletion of ANAPC11 #1 came out at: log2 vehicle/camptothecin viability -0.16.
ANAPC11 #2 gave log2 vehicle/camptothecin viability 0.00131.
With knock-down of ANAPC11 #3, the screen gave log2 vehicle/camptothecin viability 0.115.
Knock-down of ANAPC11 #4 resulted in: log2 vehicle/camptothecin viability 0.0803.
For TRAP1 #1 the deposit lists log2 vehicle/camptothecin viability 0.701.
TRAP1 #2 showed log2 vehicle/camptothecin viability 0.41.
For TRAP1 #3, the entry reads log2 vehicle/camptothecin viability -0.371.
With knock-down of LIM2 #1, the screen gave log2 vehicle/camptothecin viability -0.203.
LIM2 #2 scored log2 vehicle/camptothecin viability -0.149.
For LIM2 #3, the entry reads log2 vehicle/camptothecin viability 0.0414.
After knock-down of MCOLN3 #1 the results were log2 vehicle/camptothecin viability -0.0424.
For MCOLN3 #2 the deposit lists log2 vehicle/camptothecin viability 0.0488.
MCOLN3 #3 scored log2 vehicle/camptothecin viability -0.31.
